According to patent US6861389B2, “Substituted 2-amino-1,3,5-triazines, their preparation, and their use as herbicides and plant growth regulators” (Aventis CropScience GmbH, priority 2000, dated 2005):
Some entries share one result that the patent states for a list of compounds.

Tests used:
[1] = test system: harmful plants such as Stellaria media, Lolium multiforum, Amaranthus retroflexus, Sinapis alba, Avena sativa and Setaria viridis; assay: Pre-emergence herbicidal action (greenhouse pot test); assay type: in vivo, monocotyledonous and dicotyledonous weed plants; details: applied to soil cover, 3 to 4 weeks, vs untreated controls
[2] = test system: harmful plants such as Sinapis alba, Echinochloa crus-galli, Lolium multiflorum, Stellaria media, Cyperus iria, Amaranthus retroflexus, Setaria viridis and …; assay: Post-emergence herbicidal action (greenhouse pot test); assay type: in vivo, monocotyledonous and dicotyledonous weeds; details: 1 kg and less active substance per hectare, sprayed at three-leaf stage, Avena sativa, 3 to 4 weeks
[3] = test system: harmful plants such as, for example, Cyperus monti, Echinochloa crus-galli and Sagittaria pygmaea; assay: Action against harmful plants in rice (paddy rice conditions); assay type: in vivo, typical rice weeds (broad-leaved and grass weeds); details: applied to paddy water, approximately three weeks after application

| SMILES | pre-emergence control on harmful plants (plant or emergence damage scored visually) [1] | herbicidal post-emergence activity (scored visually) [2] | herbicidal action against harmful plants in rice (plant damage scored visually) [3] |
| --- | --- | --- | --- |
| CN1CCCC1=Nc1nc(NC(CCc2ccccc2)C2CCC2)nc(C(C)(C)F)n1 (racemic) [Compound 3-124] | very good pre-emergence control | good herbicidal post-emergence activity | very good herbicidal action |
| CCN(C=Nc1nc(NC(CCc2cccc(C)c2)CC2CC2)nc(C(C)(C)F)n1)CC (racemic) [Compound 5-1] | very good pre-emergence control | good herbicidal post-emergence activity | very good herbicidal action |
| CC(F)c1nc(N=CN(C)C)nc(NC(CCc2ccccc2)CC2CC2)n1 (racemic) [Compound 5-40] | very good pre-emergence control | good herbicidal post-emergence activity | very good herbicidal action |
| CCN(C=Nc1nc(NC(CCCc2ccccc2)C2CC2)nc(C(C)(C)F)n1)CC (racemic) [Compound 8-11] | very good pre-emergence control | good herbicidal post-emergence activity | very good herbicidal action |
| CC(=Nc1nc(NC(CCCc2cccc(F)c2)C2CC2)nc(C(C)(C)F)n1)N(C)C (racemic) [Compound 8-20] | very good pre-emergence control | good herbicidal post-emergence activity | very good herbicidal action |
| CC(=Nc1nc(NC(CCCc2cccc(F)c2)C2CC2)nc(C(C)F)n1)N(C)C (racemic) [Compound 8-21] | very good pre-emergence control | good herbicidal post-emergence activity | very good herbicidal action |
| CN(C)C=Nc1nc(NC(CCCc2ccccc2)C2CC2)nc(C(C)(C)F)n1 (stereo not drawn) [Compound 8-2, 2-Dimethylaminomethyleneamino-4-(1-fluoro-1-methylethyl)-6-(1-cyclopropyl-4-phenyl-1-butylamino)-1,3,5-triazine] | very good pre-emergence control | good herbicidal post-emergence activity | very good herbicidal action |
| CC(C)(F)c1nc(NC=NO)nc(NC(CCCc2ccccc2)C2CC2)n1 (stereo not drawn) [Compound 8-27, N-[4-(1-Fluoro1-methylethyl)-6-(1-cyclopropyl-4-phenyl-1-butylamino)-1,3,5-triazin-2-yl]formamide oxime] | very good pre-emergence control | good herbicidal post-emergence activity | very good herbicidal action |
| CC(C)(F)c1nc(N=Cc2ccc(Cl)cc2)nc(NC(CCCc2ccccc2)C2CC2)n1 (stereo not drawn) [Compound 8-37, 2-(4-Chlorobenzylideneamino)-4-(1-fluoro-1-methylethyl)-6-(1-cyclopropyl-4-phenyl-1-butylamino)-1,3,5-triazine] | very good pre-emergence control | good herbicidal post-emergence activity | very good herbicidal action |
